Chains of the proteins cited; added tags and fusions are not shown. Lines headed by an entry give the natural chain unless they say otherwise; changes in a name come on top.
UniProt P51450: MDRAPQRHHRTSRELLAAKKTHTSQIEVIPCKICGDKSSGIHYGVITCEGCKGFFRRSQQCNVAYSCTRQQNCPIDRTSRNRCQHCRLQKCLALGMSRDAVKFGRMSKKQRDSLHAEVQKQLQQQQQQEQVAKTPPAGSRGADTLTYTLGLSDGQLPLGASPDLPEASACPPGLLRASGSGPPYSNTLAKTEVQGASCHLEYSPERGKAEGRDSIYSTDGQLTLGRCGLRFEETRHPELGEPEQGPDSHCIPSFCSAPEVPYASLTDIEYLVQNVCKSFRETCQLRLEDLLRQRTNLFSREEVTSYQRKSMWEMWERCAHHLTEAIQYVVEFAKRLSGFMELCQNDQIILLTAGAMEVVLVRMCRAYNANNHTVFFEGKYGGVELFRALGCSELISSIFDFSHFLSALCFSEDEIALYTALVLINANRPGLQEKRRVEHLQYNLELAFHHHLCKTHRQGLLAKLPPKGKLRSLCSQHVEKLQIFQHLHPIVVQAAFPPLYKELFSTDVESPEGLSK

The campaign covered roughly 310,000 compounds. About 17,000 (5.5%) were called active. The shares of active, inactive and inconclusive entries below differ from those in the screen. The call rests on the fitted dose curve; in most records, active means well fitted inhibition curve with a large enough effect; inconclusive means small, poorly fitted or top-dose-only effect, or effect the other way; inactive means no such curve, though single readings can be large or run the other way. A potency beside an inconclusive call is a rough fit, not a confirmed value.
These molecules were tested against Nuclear receptor ROR-gamma (Mus musculus) (UniProt P51450) (assay: qHTS for inhibitors of ROR gamma transcriptional activity). Settings: Drosophila S2 Gal4-RORgamma UAS-luciferase reporter, 20 h; activity change, negative = inhibition: at 53.6 µM (top of the series).
Procedure, shortened: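 Compounds are pin-transferred onto Drosophila Schneider cells expressing a copper-inducible Gal4–ROR gamma transactivation domain fusion. After 1 hr, copper sulfate is added to 700 uM final; luciferase is read 20 hr later.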
In the case of O=C(Nc1ccc2nc(-c3ccccc3)oc2c1)c1ccco1, the Potency is reported as inconclusive: 6.31 µM [inhibitor, single point]. CCc1ccc(NC2CC(=O)N(CCc3ccc(OC)c(OC)c3)C2=O)cc1 (stereo not given) was tested, and the Potency was inconclusive: 22.4 µM [activator, single point]. In the case of CCCc1nnc(SCC(=O)Nc2ccc(OC)cc2)n1N, the Potency is reported as “inactive”. With O=C(NC(Nc1nc2ccc([N+](=O)[O-])cc2s1)(C(F)(F)F)C(F)(F)F)c1cccnc1 the Potency was inconclusive: 35.5 µM [inhibitor, single point]. In the case of CC1=CC(=NOC(=O)/C=C/c2ccccc2)C=C(C)C1=O, the Potency is reported as inconclusive: 20 µM [inhibitor, single point]. With COc1ccccc1C(=O)Nc1ccc2c(c1)nc1n2CCSC1 the Potency was inconclusive: 12.6 µM [inhibitor, single point]. With O=C(NC1CCN(S(=O)(=O)c2ccc(Cl)cc2)CC1)c1cccnc1 the Potency was inconclusive: 7.94 µM [activator, single point]. In the case of O=C(c1ccncc1)c1ccc(NS(=O)(=O)c2ccc(Br)s2)cc1, the Potency is reported as inconclusive: 31.6 µM [activator, single point]. COC(=O)c1ccc(NC(=S)NC2CC2)cc1 was tested, and the Potency was inconclusive: 12.6 µM [inhibitor, single point]. In the case of CC1CN(C(c2cccs2)c2sc3ncnn3c2O)CC(C)O1 (stereo not given), the Potency is reported as inconclusive: 5.01 µM [activator, single point]. With O=C(Nc1nnc(SCC(=O)N2CCOCC2)s1)C1CC(=O)N(c2ccccc2)C1 (stereo not given) the Potency was “inactive”. In the case of C/C(=N\NC(=O)c1cc(C(C)C)[nH]n1)c1ccco1, the Potency is reported as inconclusive: 11.2 µM [inhibitor, single point]. For COc1ccc2cc(C(=O)O)n(CC(=O)c3ccccc3)c2c1, the Potency was “inactive”. In the case of Cc1c(N(C)C(=O)COc2ccc3ccccc3c2)c(=O)n(-c2ccccc2)n1C, the Potency is reported as “inactive”. With Cc1n[nH]c(C)c1CCCOc1ccccc1 the Potency was inconclusive: 17.8 µM [inhibitor, single point]. For COc1ccccc1CNC(=O)C1CCN(c2ncnc3c2nc2n3CCCCC2)CC1, the Potency was inconclusive: 35.5 µM [inhibitor, single point]. For CN(C)S(=O)(=O)c1cccc(NC(=O)c2cc3c(cc2Cl)N2CCCCCC2=NS3(=O)=O)c1, the Potency was inconclusive: 5.62 µM [activator, single point]. In the case of CCN1CNC(=S)N(C(C)c2ccccc2)C1 (stereo not given), the Potency is reported as active: 10 µM. CN1CCN(c2ncnc3ccc(-c4cccc(NS(C)(=O)=O)c4)cc23)CC1 was tested, and the Potency was “inactive”. In the case of CC1=NN(C(N)=S)C(C)(C)C1, the Potency is reported as “inactive”. With C=C(C)C1Cc2c(C)nn(-c3nc(C)cc(C)n3)c2C1 (stereo not given) the Potency was active: 0.355 µM. With C/C(=N\NC(=S)Nc1ccc(F)cc1)C1CC1 the Potency was inconclusive: 35.5 µM [inhibitor, single point]. CCCCCCCCCCCCCCCC[N+](C)(C)CC was tested, and the Potency was “inactive”. In the case of CCc1ccc2c(c1)C1(NN=C(c3ccccc3)S1)C(=O)N2 (stereo not given), the Potency is reported as inconclusive: 25.1 µM [inhibitor, single point]. With O=c1c2ccccc2oc2ccc(NCCCN3CCOCC3)cc12 the Potency was inconclusive: 6.31 µM [inhibitor, partial curve, poor fit]. For O=[N+]([O-])c1ccc(C(=S)N2CCN(Cc3ccccc3)CC2)cc1, the Potency was inconclusive: 35.5 µM [activator, single point]. Cc1ccc(N(CC(=O)N/N=C/c2cc(C)n(-c3ccccc3)c2C)S(C)(=O)=O)c(C)c1 was tested, and the Potency was inconclusive: 17.8 µM [inhibitor, single point]. CC(/C=C1\NC(=S)NC1=O)=C\c1ccccc1 was tested, and the Potency was inconclusive: 15.8 µM [inhibitor, single point]. For CC1CCCN(c2nc3ccccc3nc2C(C#N)S(=O)(=O)c2ccccc2)C1 (stereo not given), the Potency was inconclusive: 8.91 µM [activator, partial curve]. With CCOc1ccc(S(=O)(=O)NCc2cccnc2)cc1C(C)C the Potency was inconclusive: 28.2 µM [activator, single point]. For Cc1onc(C(=O)NCc2ccccn2)c1[N+](=O)[O-], the Potency was inconclusive: 6.31 µM [inhibitor, single point]. In the case of CCOc1ccccc1C(=O)Nc1cc(C(=O)NCC(C)C)ccc1Cl, the Potency is reported as inconclusive: 0.0056 µM [inhibitor, full curve, poor fit]. O=C(NC(=S)N1CCN(Cc2ccc3c(c2)OCO3)CC1)c1cccc(Br)c1 was tested, and the Potency was active: 0.562 µM. For Cc1cc(/C=N/NC(=O)c2nn(C)cc2Cl)c(C)n1-c1cccc(Br)c1, the Potency was inconclusive: 20 µM [inhibitor, single point]. COc1ccc(CNCCc2ccc(Cl)cc2)cc1OCc1ccccc1 was tested, and the Potency was inconclusive: 25.1 µM [inhibitor, single point]. NC(=O)c1ccccc1N=Cc1ccccn1 was tested, and the Potency was “inactive”. With CN(CC(=O)NC(=O)NCc1ccco1)Cc1nc2ccccc2c(=O)[nH]1 the Potency was active: 1 µM. For COC(=O)Cc1ccc(NC(=S)NNC(=O)c2ccccc2Br)cc1, the Potency was active: 1.58 µM. O=C(NCCCN1CCOCC1)c1ccc2nc(Cc3ccccc3F)oc2c1 was tested, and the Potency was inconclusive: 12.6 µM [activator, partial curve]. In the case of O=C(O)CCC(=O)Nc1ccccc1C(=O)NCc1ccco1, the Potency is reported as inconclusive: 11.2 µM [inhibitor, partial curve]. CCOc1ccc2[nH]c(=O)c(CN(CCO)C(=O)c3ccc(Br)cc3)cc2c1 was tested, and the Potency was inconclusive: 20 µM [inhibitor, single point]. With O=C(CCCCCNc1nc(=S)[nH]c2ccccc12)N1CCN(c2ccccn2)CC1 the Potency was active: 10 µM. In the case of COc1cc(CN2CCN(c3cccc(Cl)c3)CC2)cc(OC)c1OC, the Potency is reported as “inactive”. With Clc1cc(Cl)c(OCc2nc(-c3ccccn3)no2)cc1Cl the Potency was inconclusive: 31.6 µM [inhibitor, single point]. In the case of CCOC(=O)N=Nc1c(O)n(CC(=O)OC)c2ccccc12, the Potency is reported as “inactive”. For COc1cccc2cc(-c3nnc(-c4ccccc4)o3)c(=O)oc12, the Potency was active: 1.26 µM. CCc1nnc(N/N=C/c2ccc(O)c(OC)c2)n1N was tested, and the Potency was active: 15.8 µM. With CCn1c(=O)c(C(=O)NCc2ccccc2Cl)c(O)c2ccccc21 the Potency was inconclusive: 15.8 µM [inhibitor, single point]. With COc1ccc(/C=C/C(=O)c2c(O)c(OC)c3occc3c2OC)cc1 the Potency was inconclusive: 35.5 µM [inhibitor, single point]. In the case of Cc1ccccc1N1CCN(Cc2nc(Cc3ccccc3)no2)CC1, the Potency is reported as “inactive”. S=c1[nH]nc(COc2ccc3ccccc3c2)o1 was tested, and the Potency was inconclusive: 25.1 µM [inhibitor, single point]. For Cc1ccccc1NC(=S)NC(C)CCc1ccccc1 (stereo not given), the Potency was active: 4.47 µM. Cc1ccc(-c2nn3c(=O)c(C)nnc3s2)cc1 was tested, and the Potency was inconclusive: 6.31 µM [activator, single point]. For Cc1cc(C(=O)COC(=O)c2ccc(N)c([N+](=O)[O-])c2)c(C)n1-c1ccc2c(c1)OCO2, the Potency was inconclusive: 10 µM [activator, partial curve]. In the case of C=CCN(C(=O)COc1ccccc1)c1nnc(-c2ccncc2)s1, the Potency is reported as inconclusive: 10 µM [inhibitor, partial curve]. For CN1CCN(c2nc(-c3ccc(Cl)s3)cs2)CC1, the Potency was inconclusive: 35.5 µM [inhibitor, single point]. COc1cc(/C=N/NC(=O)c2cc(C)oc2C)ccc1OCc1ccccc1 was tested, and the Potency was inconclusive: 17.8 µM [inhibitor, single point]. With CC(C)(C)N1C(=O)[C@H]2[C@H]3[C@H](O)[C@H](O)C/C(=N/OC[C@@H](O)COCc4ccco4)[C@H]3CC[C@@H]2C1=O the activity change, negative = inhibition was inactive: -14.6% [at 10 µM]. With Cc1ccc(-c2cc(-c3ccccc3)nc(N(C)N)n2)cc1 the Potency was active: 12.6 µM. C=CCn1c(SCc2csc(-c3ccc(C)cc3)n2)nnc1-c1ccccc1OC was tested, and the Potency was inconclusive: 8.91 µM [activator, partial curve]. With COC(=O)c1ccc(C(NC(=O)OCc2ccccc2)/C(F)=C/[C@@H](C)C(=O)NC2CCCCC2)cc1 (stereo not given in full) the Potency was inconclusive: 35.5 µM [inhibitor, single point]. In the case of Cc1ccccc1NC(=O)CSc1nn2c(=O)c(C)nnc2s1, the Potency is reported as inconclusive: 8.91 µM [inhibitor, single point]. For Cc1ccc(C(=O)N/N=C/c2ccc(-c3ccc(Br)cc3[N+](=O)[O-])o2)o1, the Potency was inconclusive: 25.1 µM [inhibitor, single point]. With O=C(COCc1cc(-c2ccc3c(c2)OCO3)on1)N1CCCCC1 the Potency was inconclusive: 3.55 µM [inhibitor, partial curve, poor fit]. Cc1c(C(=O)N2CCCC2)sc(NC(=O)c2ccccc2)c1C#N was tested, and the Potency was inconclusive: 3.55 µM [activator, single point]. With COc1cc(/C=N/NC(=O)c2nnn(-c3nonc3N)c2C(C)C)ccc1OCc1ccc(F)cc1 the Potency was inconclusive: 8.91 µM [activator, partial curve]. O=c1c(Cl)c(Cl)cnn1Cc1nnc(-c2ccccc2Br)o1 was tested, and the Potency was inconclusive: 4.47 µM [activator, single point]. COC(=O)[C@H](C)[C@H]1C[C@]1(C)[C@H](NC(=O)OCc1ccccc1)c1ccccc1 was tested, and the Potency was inconclusive: 17.8 µM [inhibitor, single point]. For CC(C)NC1=C(Cl)C(=O)c2ccccc2C1=O, the Potency was inconclusive: 10 µM [inhibitor, partial curve]. O=C(CCl)Nc1ccc(-c2ccccc2)cc1 was tested, and the Potency was active: 25.1 µM.
Further: nearly all actives have a fitted effect of over 60% in size.
On the % scale 0 is the no-effect control and ±100 the full control effect; potency means the concentration at half of the fitted maximal effect.
